Data published in the supplement of paper PMC12889115.
The other results are listed elsewhere or left out. Values are raw readings; no control value is given beside them.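 Primary screen: polymyxin B was added at a level permeabilizing Salmonella outer membranes while sparing inner membranes. DMSO wells, both with and without polymyxin B, established maximum growth. Plate-to-plate variation meant each plate was ranked on its own, and the lowest-OD600 compounds were selected as hits.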

Test system: Salmonella enterica serovar Typhimurium SL1344
Test: bacterial growth OD600 after 18 h with compound and polymyxin B; higher = more bacterial growth (less inhibition)
Details: 50 µM, Mueller-Hinton broth

Row | SMILES | bacterial growth OD600 (polymyxin B 0.75 µg/mL) | bacterial growth OD600 (polymyxin B 1 µg/mL)
1 | C=CCNCCC1CCC(=O)N1CCCc1ccccc1 (configuration not stated) | 0.769 | 
2 | COc1ccc2c(c1)OC(C)CN(CC(=O)NCC(c1ccc(F)cc1)N1CCCC1)C2 (configuration not stated) | 0.702 | 
3 | CC#CCN1C(=O)NC(CCc2ccccc2)(C2CCN(C(=O)/C=C/c3ccccc3)CC2)C1=O (configuration not stated) | 0.033 | 
4 | CCOC(=O)N1CCC(NC(=O)CC2(c3ccccc3C)CC(=O)N(CCCOC)C2=O)CC1 (configuration not stated) | 0.861 | 
5 | Cc1oc(-c2cccc(Oc3ccccc3)c2)nc1CN1CCN(c2cnccn2)CC1 |  | 0.003
6 | Cc1oc(-c2ccccc2NS(=O)(=O)c2cccc(F)c2)nc1CNC(=O)CCc1ccccc1 | 0.655 | 
7 | Cc1ccc(NC2CCCN(C(=O)C(C)(C)C)C2)cc1C (configuration not stated) |  | 0.851
8 | O=C(C1CCOC1)N1CCc2[nH]nc(-c3cccc(F)c3)c2C1 (configuration not stated) | 0.839 | 
9 | O=C(Nc1ccc(Oc2cccnc2)cc1)C1CCCCN1Cc1cccc2nonc12 (configuration not stated) | 0.38 | 
10 | CCN(CC)C(=O)C1CCCN(C(=O)CC2(c3cccc(C(F)(F)F)c3)CC(=O)N(CC)C2=O)C1 (configuration not stated) | 0.911 | 
11 | CC(C)Nc1ccc(-c2nc(COc3ccccc3)no2)cn1 |  | 0.055
12 | O=C(NCC1(c2ccccc2)CCOCC1)c1cn(Cc2ccc(F)cc2)nn1 |  | 1.11
13 | COC(=O)CCC(=O)N1CCCC(C(=O)c2ccc(-c3ccccc3)c(F)c2)C1 (configuration not stated) |  | 0.127
14 | CCn1ncc(CNC2CC(=O)N(Cc3cccc(F)c3)C2)c1C (configuration not stated) |  | 1.04
15 | CC(C)(C)C(=O)Nc1ccnn1C1CCN(C(=O)CCC(=O)c2ccccc2)CC1 |  | 1.06
16 | COc1cc(CN2Cc3cc(Cl)ccc3OC(C)C2)cc(OC)c1O (configuration not stated) | 0.826 | 

Row | SMILES | bacterial growth OD600 (polymyxin B 0.75 µg/mL) | bacterial growth OD600 (polymyxin B 1 µg/mL)
17 | Cc1ncc(CNCc2cccnc2N2CCCCCCC2)n1C | 0.823 | 
18 | O=C(CC1(c2ccccc2)CC(=O)N(Cc2ccncc2)C1=O)N(Cc1ccccc1)CC1CC1 (configuration not stated) | -0.003 | 
19 | O=C(c1ccccc1OC1CCN(Cc2cccc(F)c2F)CC1)N1CCCC1 |  | 0.931
20 | CCCc1cc(CNC(=O)c2ccc(N3CCC4(CCN(CC)C4)C3)nc2)on1 (configuration not stated) |  | 0.984
21 | Cn1nccc1C(=O)NC1CCCN(C2CCCCCC2)C1 (configuration not stated) |  | 0.9
22 | C=CCN(CC=C)C(=O)CC1C(=O)NCCN1Cc1ccc(C)cc1 (configuration not stated) |  | 0.972
23 | CC(C)CN1CCC(CN(C)C(=O)c2cc(COc3ccc4ncccc4c3)on2)C1 (configuration not stated) | 0.884 | 
24 | CC(=O)N[C@@H]1c2ccccc2C2(CCN(C(=O)c3cccc(F)c3F)CC2)[C@H]1OCc1ccccc1 | 0.688 | 
25 | CC(C)(C)NC(=O)c1coc(COc2ccc(F)cc2Cl)n1 |  | 0.863
26 | COc1ccc(CN2CCC(O)(Cc3cc(-c4ccccc4)no3)CC2)cc1C |  | 0.794
27 | Cc1ccc(CN2CCC(N3CCCC(C(=O)NC4CC4)C3)CC2)cc1C (configuration not stated) | 0.817 | 
28 | Cc1ccc(-c2n[nH]cc2CNCc2cccc(OC(F)(F)F)c2)cc1C |  | 0.667
29 | FC(F)(F)c1ccccc1CCNc1nncc(-c2ccccc2)n1 |  | 0.991
30 | CN(C)c1ncccc1CNC(=O)C1CCOC1 (configuration not stated) |  | 0.755
31 | CC(C)CCN1CCC(N2CCC(C(=O)NCc3cccnc3)CC2)CC1 |  | 0.941
32 | Cc1cccc(OC2CCN(C(=O)c3cn(Cc4ccccc4C)nn3)CC2)c1 |  | 0.585

From entry 1 up to 2, copied from above:
Row | SMILES | bacterial growth OD600 (polymyxin B 0.75 µg/mL) | bacterial growth OD600 (polymyxin B 1 µg/mL)
1 | C=CCNCCC1CCC(=O)N1CCCc1ccccc1 (configuration not stated) | 0.769 | 
2 | COc1ccc2c(c1)OC(C)CN(CC(=O)NCC(c1ccc(F)cc1)N1CCCC1)C2 (configuration not stated) | 0.702 | 
